The target in data set [1] is T1, rEhTBP (TATA-box binding protein) (Entamoeba histolytica) (UniProt P52653).
T1 sequence (looked up, limits assumed): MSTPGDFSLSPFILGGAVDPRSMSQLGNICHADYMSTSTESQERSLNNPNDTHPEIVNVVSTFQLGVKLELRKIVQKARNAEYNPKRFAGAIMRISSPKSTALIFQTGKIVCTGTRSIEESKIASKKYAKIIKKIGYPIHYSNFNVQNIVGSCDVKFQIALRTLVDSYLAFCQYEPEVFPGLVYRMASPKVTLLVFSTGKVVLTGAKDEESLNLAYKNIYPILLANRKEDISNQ
Description: competition with a labelled probe. To be noted: 200-fold excess vs GAAC-box probe; EMSA: 12 mM Hepes pH 7.9, 60 mM KCl, 1 mM each DTT, EDTA, spermidine and MgCl2, 10% glycerol, poly(dG-dC) 1 ug/ul, 10 min at 4 C; probe 557 pM (TATA); recombinant protein; protein details: His tag; label: 5'-32P.

In data set [2] the target is T2, rEhTRF1 (TBP-related factor 1) (Entamoeba histolytica) (UniProt A7UFC2).
T2 sequence (looked up, limits assumed): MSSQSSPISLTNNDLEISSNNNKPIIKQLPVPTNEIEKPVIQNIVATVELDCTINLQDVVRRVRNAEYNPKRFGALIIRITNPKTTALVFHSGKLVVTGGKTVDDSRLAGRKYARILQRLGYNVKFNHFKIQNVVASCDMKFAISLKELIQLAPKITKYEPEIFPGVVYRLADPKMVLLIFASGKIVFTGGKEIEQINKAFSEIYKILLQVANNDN
Put plainly: competition with a labelled probe. To be noted: 200-fold excess vs GAAC-box probe; EMSA: 12 mM Hepes pH 7.9, 60 mM KCl, 1 mM each DTT, EDTA, spermidine and MgCl2, 10% glycerol, poly(dG-dC) 1 ug/ul, 10 min at 4 C; probe 557 pM (TATA); recombinant protein; protein details: His tag; label: 5'-32P. (Mobility shift assays separate free from complexed probe on a gel.)

The exact form of at least one protein or probe is not confirmed. Protein sequences can lack the tags named with them.

Consider “AATTCTCTATTTAAAGAGAATT (double strand) [TATTTAAA (1)]”, for which the binding result in data set [1] and in data set [2] was “binds” throughout.

Source of the values: PMC5842622, “The Entamoeba histolytica TBP and TRF1 transcription factors are GAAC-box binding proteins, which display differential gene expression under different stress stimuli and during the interaction with ma”.
